The structures appear in SMILES notation. About 5,900 (2.8%) of roughly 210,000 compounds were called active. Not shown: some 5% with an inconclusive outcome. The call rests on the fitted dose curve; in most records, active means well fitted activation curve with a large enough effect; inconclusive means small, poorly fitted or top-dose-only effect; inactive means no such curve, though single readings can be large or run the other way. This is a selection; strong and weak results do not stand in their true shares. Where no call is shown, the source filed none.
Potency means the concentration at half of the fitted maximal effect.

The assay in a line: qHTS Assay for Enhancers of SMN2 Splice Variant Expression. Further: nearly all actives have a fitted effect of over 55% in size. On activity change, positive = activation: % of control where 0% means no effect. As to conditions: HEK293 SMN2-luciferase splicing reporter, luminescence, 30-36 h; activity change, positive = activation: at 46.1 µM (top of the series) unless noted. In a few lines: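 HEK293 cells carry an SMN2 minigene-luciferase reporter in which exon 7 inclusion puts luciferase in frame. Cells were seeded at 2000 cells/well, attached for 10-12 hours, then exposed to compounds for 30-36 hours at 37C before ONE-Glo luminescence.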
Background: Quantitative high-throughput screening tests each substance at several concentrations.
For `O=C1C(Nc2ccccc2)=CC(=O)c2ncccc21`, the “activity change, positive = activation” value is inactive: -114%.
Same read-out and setting: the result for `Cc1[nH]n(-c2ccccc2)c(=O)c1C(C[N+](=O)[O-])c1ccccc1Cl` (stereo not drawn) reads 20.9%; that for `O=C(Nc1ccncc1)c1ccc2c(c1)S(=O)(=O)c1ccccc1C2=O`, inactive: -34.6%; that for `Cc1cc2nc(-c3cccc(NC(=O)COc4ccc(Cl)c(C)c4)c3)oc2cc1C`, 56.8%.
Regarding `N/C(=N\OC(=O)Cc1ccc(-c2ccccc2)cc1)c1ccccn1`, the “activity change, positive = activation” value was inactive: -32.7%.
On the same count and under the same terms, then `CN(C1CCCCC1)S(=O)(=O)c1ccc(NC(=O)C2CCCCC2C(=O)O)cc1` (stereo not drawn), with 32.3%; and `Cc1ccc2nc(SCC(=O)Nc3cccc(S(=O)(=O)N(C)C)c3)[nH]c2c1`, with inactive: -33.3%; and `Cc1ccccc1-c1ccc(Nc2ccc(C(=O)N3CCOCC3)cc2)nn1`, with 3.26%.
On to `Cc1cc(NC(=S)Nc2cccnc2)ccc1Br`, for which the activity change, positive = activation was -11.7%.
The same measure, in the same setting: the result for `CC(CCc1ccccc1)NC(=O)CCCCCNc1nc(=S)[nH]c2ccccc12` (stereo not drawn) reads -41.3%.
As for `COc1cccc(/C=C/C(=O)Nc2ccccc2N2CCOCC2)c1`, the activity change, positive = activation came to 65.3%.
Still for that read-out and setting: the result for `O=C(NCCCCCCOC1=NS(=O)(=O)c2ccccc21)C(=O)Nc1ccccc1` reads 64.5%; that for `CNc1nc(N)c([N+](=O)[O-])c(NCc2ccccc2)n1`, 75%.
As for `COc1ccc(/C(N)=N/OC(=O)c2ccco2)cc1`, the Potency is active: 6.31 µM.
Consider `COCC(=O)N(Cc1cc2ccc(C)cc2[nH]c1=O)c1ccc(OC)cc1`, for which the activity change, positive = activation was 36.1%.
The same measure, in the same setting: the result for `COc1ccc(NC(=O)NCc2cccnc2)cc1OC` reads 45.1%.
Same read-out and setting: then `Cc1nn(CC(=O)Nc2ccc3c(c2)nc(CN2CCCCC2)n3C)c(=O)c2ccccc12`, with 17.3%.
With `O=C(O)c1cc(N/N=C/c2ccc3c(c2)OCCO3)ccc1Cl`, the Potency is active: 0.316 µM.
Turning to `Cc1cccc(C)c1NC(=O)CCCSc1nnc(-c2ccc(F)cc2)n1-c1ccccc1`, the “activity change, positive = activation” value is inactive: -55.7%.
Same read-out and setting: the result for `COc1cc2[nH]c(=S)n(NC(=O)CC(C)C)c(=O)c2cc1OC` reads 42.1%; that for `N#Cc1nc(-c2ccco2)oc1NCCN1CCOCC1`, -23%; that for `COc1ccc(-c2cnnc(N/N=C/c3ccc(OC)c(OC)c3)n2)cc1`, -53.8%.
Consider `COc1ccc(OC)c(NS(=O)(=O)c2ccc3c(c2)n(C)c(=O)n3C)c1`, for which the activity change, positive = activation is -54%.
As to `CC1(C)CNC(=O)C=C(c2ccccc2)C1`, the activity change, positive = activation turned out to be 24.2%.
On to `O=C1c2ccccc2NC(c2ccc3c(c2)OCCO3)N1c1ccc2c(c1)OCCO2` (stereo not drawn), for which the Potency is active: 3.55 µM.
For `COc1ccc(/C=C/C(=O)c2c(O)cc(C)oc2=O)c(OC)c1`, the “activity change, positive = activation” value was inactive: -33.9%.
On the same count and under the same terms, the result for `CC(C)(C)OC(=O)COc1cc(OCC(=O)OC(C)(C)C)c2c(=O)cc(-c3ccccc3)oc2c1` reads -67.5%.
Still for that read-out and setting: the result for `COc1ccc(Cl)cc1NC(=O)CN1c2ccccc2CC1C` (stereo not drawn) reads inactive: -47.1%; that for `Cc1cccc(NC(=O)NCCOCCn2c(=O)oc3ccccc32)c1C`, 45.5%; that for `Cc1cc(Cl)c(S(=O)(=O)N2CCSCC2)cc1OCC(=O)NC1CCCCC1`, inactive: -80.2%.
Same read-out and setting: the result for `CCN(C(=O)COC(=O)c1cccnc1Nc1cccc(C(F)(F)F)c1)C1CCS(=O)(=O)C1` (stereo not drawn) reads -31.3%.
On to `O=C(NC(=S)Nc1ncccn1)c1ccc(Cl)cc1Cl`, for which the activity change, positive = activation came out at 101%.
In the case of `COc1ccc2nc(N=NC3=C(O)CC(C)(C)CC3=O)sc2c1`, the “activity change, positive = activation” value is inactive: -92%.
The same measure, in the same setting: the result for `S=C(NCc1ccc(Cl)cc1Cl)NC1CCCCC1` reads -54.7%; that for `CC(=C/c1ccc(C(C)C)cc1)/C=N/NC(=O)CSc1ccccn1`, inactive: 2.82% [at 1.84 µM].
On the same count and under the same terms, the result for `O=C(COc1ccc(Cl)cc1Cl)N1CCCN(C(=O)COc2ccc(Cl)cc2Cl)CC1` reads inactive: -34.1%; that for `CC(=O)c1c(C)[nH]c(C(=O)Nc2nc(-c3ccc(-c4ccccc4)cc3)cs2)c1C`, inactive: -98.1%; that for `O=S(=O)(c1cccc(C(F)(F)F)c1)N1c2ccccc2-n2cccc2[C@H]1c1cccnc1`, inactive: -41.7% [at 9.22 µM].
Still for that read-out and setting: the result for `O=C(NNC(=O)C1CC=CCC1C(=O)O)c1cccs1` (stereo not drawn) reads 33.4%.
As to `COc1cccc2c1C(=O)c1c(O)c3c(c(O)c1C2=O)C[C@@](O)(C(=O)CO)C[C@H]3O[C@H]1C[C@@H](N)[C@H](O)[C@@H](C)O1.[W]`, the activity change, positive = activation is inactive: -17.6% [at 9.22 µM].
For `COc1ccc(/C=C2\CCCC3C2=NN(C(=O)c2ccco2)C3c2ccc(OC)c(OC)c2)cc1OC` (stereo not drawn), the activity change, positive = activation was -32.3%.
As to `COc1cc2cc(C#N)c(SCC(=O)N3CCOCC3)nc2cc1OC`, the Potency was active: 12.6 µM.
`O=S(=O)(c1ccc(-c2cn3ccccc3n2)cc1)N1CCOCC1`: the “activity change, positive = activation” value was inactive: -43%.
Take `CCCC(=O)Nc1nc2ccc(S(N)(=O)=O)cc2s1`: the activity change, positive = activation turned out to be 30.9%.
Same read-out and setting: the result for `O=C(CCSc1nc(-c2ccco2)cc(C(F)(F)F)n1)N1CCN(c2ccccn2)CC1` reads 22.2%.
Still for that read-out and setting: the result for `Cc1occc1-c1nnc(SCC(N)=O)n1Cc1ccccc1` reads 0.815%; that for `Nc1nnc(SCC(=O)c2cccc([N+](=O)[O-])c2)s1`, inactive: -57.5%; that for `C=CCOC(=O)C1=C(C)Nc2nnnn2C1c1cc(OC)ccc1OC` (stereo not drawn), 55%.
With `Clc1cccc(/C=N/Nc2nc(Cl)nc3ccccc23)c1`, the Potency was active: 22.4 µM.
For `Cc1ccc(NC(=O)c2oc3ccccc3c2NC(=O)c2cc3ccccc3o2)cc1`, the activity change, positive = activation came to 40.3%.
Same read-out and setting: then `CCC(C)C(=O)N1CCCC(c2nc(-c3cccs3)no2)C1` (stereo not drawn), with 48.1%.
Turning to `O=S(=O)(Cc1cc(-c2ccc(Cl)cc2)no1)c1ccccc1`, the Potency is active: 12.6 µM.
Regarding `O=C1C(Cl)=C(N2CCN(Cc3ccccc3)CC2)C(=O)N1c1ccccc1`, the activity change, positive = activation was found to be 34.8%.
